Measurements taken from patent US9453056B2, “Nucleic acid construct comprising nucleic acid derived from genome of hepatitis C virus of genotype 3a” (priority 2011, dated 2016).
At least one compound was matched to its structure with a doubt left.

Test system: JFH-1 subgenomic replicon-replicating cells
Assay: Effect of antiviral agents on replicon RNA replication in JFH-1 subgenomic replicon-replicating cells (quantification of replicon RNA copy number)
Format: cell-based, hepatitis C virus of genotype 2a (JFH-1 strain)
Conditions: inhibitor for 3 days, relative to no inhibitor (100%)
Experimental: With the use of the S310A subgenomic replicon-replicating cells of the established 10 clones (Clone Nos. 1 to 10), the copy number of intracellular HCV subgenomic replicon RNA was quantified. The quantification of copy number of HCV subgenomic replicon RNA was carried out in accordance with the technique described in Takeuchi et al. (Gastroenterology, 1999, Vol. 116, pp. 636-642) and Kato et al. (Gastroenterology, 2003, Vol. 125, pp. 1808-1817).
This technique is a detection system using TaqMan probe method (PerkinElmer Inc., Applied Biosystems Inc.). Specifically, total RNA was first extracted from the S310A subgenomic replicon-replicating cells in accordance with a conventional technique. […] In the presence of such probe, the probe that had hybridized to the template cDNA is degraded because of 5′ exonuclease activity of the Taq polymerase during the process of amplification, the fluorescent dye is released from the probe, suppression by the quencher is released, thereby emitting fluorescence. Thus, such fluorescence was detected with ABI Prism 7700 (ParkinElmer Inc., Applied Biosystems Inc.) to quantify the copy number of HCV subgenomic replicon RNA. […]

## CCC[C@H](NC(=O)[C@@H]1[C@H]2CCC[C@H]2CN1C(=O)[C@@H](NC(=O)[C@@H](NC(=O)c1cnccn1)C1CCCCC1)C(C)(C)C)C(=O)C(=O)NC1CC1 [VX-950, telaprevir]
  replication of the JFH-1 subgenomic replicon RNA (change ratio of HCV RNA levels): exert inhibitory activity
